Test results taken from the supplement of paper PMC10849652.
Some of the results follow. Residues, ends and D or L forms follow the SMILES beside them. *: point of attachment. Cbz = O=C(OCc1ccccc1)*

Amino acid sequences for entries named in this document (tags omitted). A change or cut given only in a name is not applied to a line headed by its entry.
UniProt P61289: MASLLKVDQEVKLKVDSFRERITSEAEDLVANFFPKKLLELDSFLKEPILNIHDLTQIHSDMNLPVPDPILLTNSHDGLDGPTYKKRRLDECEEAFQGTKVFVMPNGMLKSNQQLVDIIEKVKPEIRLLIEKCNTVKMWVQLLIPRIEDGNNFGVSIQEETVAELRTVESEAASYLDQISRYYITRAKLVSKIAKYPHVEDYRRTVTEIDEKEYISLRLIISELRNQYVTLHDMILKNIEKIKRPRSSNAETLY
UniProt Q9H939: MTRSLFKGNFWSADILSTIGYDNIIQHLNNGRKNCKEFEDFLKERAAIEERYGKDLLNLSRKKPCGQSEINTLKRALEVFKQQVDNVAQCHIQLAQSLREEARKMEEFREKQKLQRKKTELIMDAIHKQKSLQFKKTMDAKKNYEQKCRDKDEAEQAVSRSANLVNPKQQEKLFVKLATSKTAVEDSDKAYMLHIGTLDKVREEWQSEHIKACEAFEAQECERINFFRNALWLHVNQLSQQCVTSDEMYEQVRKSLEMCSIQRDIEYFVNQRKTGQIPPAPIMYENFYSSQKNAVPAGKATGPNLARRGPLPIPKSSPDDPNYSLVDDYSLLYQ
UniProt Q92530: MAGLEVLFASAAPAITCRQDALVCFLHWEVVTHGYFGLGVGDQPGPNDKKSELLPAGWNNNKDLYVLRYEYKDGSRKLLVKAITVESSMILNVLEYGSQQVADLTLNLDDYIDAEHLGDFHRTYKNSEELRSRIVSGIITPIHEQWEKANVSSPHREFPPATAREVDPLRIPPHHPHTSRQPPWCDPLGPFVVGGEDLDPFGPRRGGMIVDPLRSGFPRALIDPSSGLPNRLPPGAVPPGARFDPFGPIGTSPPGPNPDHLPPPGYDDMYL
UniProt Q15274: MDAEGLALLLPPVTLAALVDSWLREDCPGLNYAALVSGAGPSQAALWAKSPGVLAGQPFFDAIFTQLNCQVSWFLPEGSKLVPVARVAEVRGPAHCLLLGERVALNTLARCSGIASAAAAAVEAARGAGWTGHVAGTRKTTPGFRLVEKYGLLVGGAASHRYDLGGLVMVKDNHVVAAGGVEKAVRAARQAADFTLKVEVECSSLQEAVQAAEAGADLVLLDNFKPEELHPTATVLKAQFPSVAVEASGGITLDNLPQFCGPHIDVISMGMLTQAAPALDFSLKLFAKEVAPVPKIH
UniProt O00487, whole entry, looked up: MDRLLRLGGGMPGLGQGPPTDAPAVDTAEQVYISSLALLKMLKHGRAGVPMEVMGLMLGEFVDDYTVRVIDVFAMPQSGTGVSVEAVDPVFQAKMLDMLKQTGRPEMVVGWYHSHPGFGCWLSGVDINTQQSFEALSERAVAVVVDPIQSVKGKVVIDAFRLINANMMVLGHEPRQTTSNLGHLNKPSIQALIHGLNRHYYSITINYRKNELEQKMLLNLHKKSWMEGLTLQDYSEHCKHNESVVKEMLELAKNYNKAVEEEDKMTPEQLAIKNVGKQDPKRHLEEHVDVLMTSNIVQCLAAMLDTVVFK
UniProt Q9BVG9: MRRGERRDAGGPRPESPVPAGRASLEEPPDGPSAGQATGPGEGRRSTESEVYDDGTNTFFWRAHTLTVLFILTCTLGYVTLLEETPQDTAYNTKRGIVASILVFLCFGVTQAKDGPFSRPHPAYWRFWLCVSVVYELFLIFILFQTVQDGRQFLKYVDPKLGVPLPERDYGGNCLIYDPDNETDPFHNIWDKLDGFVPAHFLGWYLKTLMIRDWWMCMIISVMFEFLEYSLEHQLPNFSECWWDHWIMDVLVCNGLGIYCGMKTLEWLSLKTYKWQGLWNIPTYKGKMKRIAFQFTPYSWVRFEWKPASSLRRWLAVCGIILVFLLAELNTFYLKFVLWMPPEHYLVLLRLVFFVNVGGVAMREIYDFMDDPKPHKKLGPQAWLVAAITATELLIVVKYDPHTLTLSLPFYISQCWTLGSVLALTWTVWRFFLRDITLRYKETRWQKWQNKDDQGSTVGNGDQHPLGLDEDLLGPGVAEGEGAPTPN
UniProt Q9NXS2: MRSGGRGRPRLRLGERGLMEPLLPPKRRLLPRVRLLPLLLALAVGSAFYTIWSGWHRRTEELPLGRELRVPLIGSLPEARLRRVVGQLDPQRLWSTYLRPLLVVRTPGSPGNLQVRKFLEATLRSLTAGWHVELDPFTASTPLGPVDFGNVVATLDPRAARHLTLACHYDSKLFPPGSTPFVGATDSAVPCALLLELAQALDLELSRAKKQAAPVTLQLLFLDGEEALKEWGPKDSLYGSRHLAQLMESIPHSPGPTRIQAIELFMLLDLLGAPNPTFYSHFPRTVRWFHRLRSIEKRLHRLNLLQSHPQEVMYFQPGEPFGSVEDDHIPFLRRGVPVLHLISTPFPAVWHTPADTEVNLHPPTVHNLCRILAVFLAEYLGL
UniProt P07602: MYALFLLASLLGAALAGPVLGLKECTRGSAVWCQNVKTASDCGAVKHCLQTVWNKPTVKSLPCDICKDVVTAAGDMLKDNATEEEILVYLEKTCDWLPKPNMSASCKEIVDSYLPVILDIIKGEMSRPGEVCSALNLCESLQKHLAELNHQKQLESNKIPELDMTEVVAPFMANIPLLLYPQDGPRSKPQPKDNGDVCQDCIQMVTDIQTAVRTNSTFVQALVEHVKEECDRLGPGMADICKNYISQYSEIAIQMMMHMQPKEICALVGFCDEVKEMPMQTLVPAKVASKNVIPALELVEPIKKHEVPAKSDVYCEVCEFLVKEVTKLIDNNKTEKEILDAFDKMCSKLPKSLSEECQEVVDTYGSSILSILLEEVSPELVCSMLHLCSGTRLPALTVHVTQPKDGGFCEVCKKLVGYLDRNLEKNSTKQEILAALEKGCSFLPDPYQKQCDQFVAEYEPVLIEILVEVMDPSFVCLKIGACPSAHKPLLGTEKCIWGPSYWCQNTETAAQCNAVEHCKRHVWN
UniProt P08575: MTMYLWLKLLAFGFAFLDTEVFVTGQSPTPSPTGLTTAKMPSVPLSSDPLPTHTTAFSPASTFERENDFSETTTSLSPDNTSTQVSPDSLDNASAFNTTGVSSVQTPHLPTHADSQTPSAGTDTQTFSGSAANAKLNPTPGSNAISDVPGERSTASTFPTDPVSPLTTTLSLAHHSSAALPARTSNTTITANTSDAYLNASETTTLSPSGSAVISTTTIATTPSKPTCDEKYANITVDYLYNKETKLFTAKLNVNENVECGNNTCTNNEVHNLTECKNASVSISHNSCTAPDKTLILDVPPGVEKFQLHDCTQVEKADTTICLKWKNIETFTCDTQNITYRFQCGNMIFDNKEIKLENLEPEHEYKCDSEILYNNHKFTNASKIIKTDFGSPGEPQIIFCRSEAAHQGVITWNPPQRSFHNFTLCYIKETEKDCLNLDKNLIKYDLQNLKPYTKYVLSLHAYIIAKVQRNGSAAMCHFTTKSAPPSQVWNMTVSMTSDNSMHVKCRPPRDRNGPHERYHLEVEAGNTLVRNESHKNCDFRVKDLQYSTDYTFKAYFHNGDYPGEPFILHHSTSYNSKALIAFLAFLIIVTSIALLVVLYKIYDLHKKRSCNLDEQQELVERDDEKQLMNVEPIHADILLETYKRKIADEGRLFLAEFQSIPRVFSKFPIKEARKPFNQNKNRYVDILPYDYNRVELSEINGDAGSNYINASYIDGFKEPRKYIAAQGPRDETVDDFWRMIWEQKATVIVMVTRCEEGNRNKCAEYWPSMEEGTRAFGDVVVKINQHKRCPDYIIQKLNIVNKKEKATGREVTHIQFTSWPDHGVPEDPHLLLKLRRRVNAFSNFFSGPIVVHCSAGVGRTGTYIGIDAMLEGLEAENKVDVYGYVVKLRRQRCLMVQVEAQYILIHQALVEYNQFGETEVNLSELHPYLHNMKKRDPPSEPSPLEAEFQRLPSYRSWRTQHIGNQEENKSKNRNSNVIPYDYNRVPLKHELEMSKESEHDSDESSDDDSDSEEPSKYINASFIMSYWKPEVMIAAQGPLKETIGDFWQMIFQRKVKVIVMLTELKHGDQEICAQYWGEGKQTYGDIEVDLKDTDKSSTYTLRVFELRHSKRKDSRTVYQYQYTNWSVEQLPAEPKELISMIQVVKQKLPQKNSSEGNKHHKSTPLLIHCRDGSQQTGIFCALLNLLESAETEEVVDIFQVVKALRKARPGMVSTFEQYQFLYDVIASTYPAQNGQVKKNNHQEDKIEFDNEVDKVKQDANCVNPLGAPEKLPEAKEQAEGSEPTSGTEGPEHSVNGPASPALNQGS
UniProt P18433: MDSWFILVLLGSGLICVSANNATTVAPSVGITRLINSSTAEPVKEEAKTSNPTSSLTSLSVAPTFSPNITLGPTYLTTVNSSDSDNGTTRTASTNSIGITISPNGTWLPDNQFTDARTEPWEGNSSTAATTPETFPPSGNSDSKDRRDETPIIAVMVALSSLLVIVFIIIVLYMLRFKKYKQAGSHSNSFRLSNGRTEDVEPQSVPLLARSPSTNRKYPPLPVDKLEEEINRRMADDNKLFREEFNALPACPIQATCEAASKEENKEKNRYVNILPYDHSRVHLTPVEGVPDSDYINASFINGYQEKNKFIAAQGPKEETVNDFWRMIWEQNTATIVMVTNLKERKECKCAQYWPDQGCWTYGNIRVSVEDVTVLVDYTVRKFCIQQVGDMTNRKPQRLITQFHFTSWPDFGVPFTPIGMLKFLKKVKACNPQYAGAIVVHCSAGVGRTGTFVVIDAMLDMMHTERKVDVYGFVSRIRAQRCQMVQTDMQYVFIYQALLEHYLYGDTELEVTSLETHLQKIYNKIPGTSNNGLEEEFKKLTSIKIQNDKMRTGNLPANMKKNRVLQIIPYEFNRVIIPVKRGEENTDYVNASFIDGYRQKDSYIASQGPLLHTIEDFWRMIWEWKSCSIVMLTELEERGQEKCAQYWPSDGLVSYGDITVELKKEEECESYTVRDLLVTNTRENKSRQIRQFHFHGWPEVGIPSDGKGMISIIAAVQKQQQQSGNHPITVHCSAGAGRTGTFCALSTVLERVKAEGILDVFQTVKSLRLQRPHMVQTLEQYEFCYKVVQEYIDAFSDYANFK
UniProt Q13308: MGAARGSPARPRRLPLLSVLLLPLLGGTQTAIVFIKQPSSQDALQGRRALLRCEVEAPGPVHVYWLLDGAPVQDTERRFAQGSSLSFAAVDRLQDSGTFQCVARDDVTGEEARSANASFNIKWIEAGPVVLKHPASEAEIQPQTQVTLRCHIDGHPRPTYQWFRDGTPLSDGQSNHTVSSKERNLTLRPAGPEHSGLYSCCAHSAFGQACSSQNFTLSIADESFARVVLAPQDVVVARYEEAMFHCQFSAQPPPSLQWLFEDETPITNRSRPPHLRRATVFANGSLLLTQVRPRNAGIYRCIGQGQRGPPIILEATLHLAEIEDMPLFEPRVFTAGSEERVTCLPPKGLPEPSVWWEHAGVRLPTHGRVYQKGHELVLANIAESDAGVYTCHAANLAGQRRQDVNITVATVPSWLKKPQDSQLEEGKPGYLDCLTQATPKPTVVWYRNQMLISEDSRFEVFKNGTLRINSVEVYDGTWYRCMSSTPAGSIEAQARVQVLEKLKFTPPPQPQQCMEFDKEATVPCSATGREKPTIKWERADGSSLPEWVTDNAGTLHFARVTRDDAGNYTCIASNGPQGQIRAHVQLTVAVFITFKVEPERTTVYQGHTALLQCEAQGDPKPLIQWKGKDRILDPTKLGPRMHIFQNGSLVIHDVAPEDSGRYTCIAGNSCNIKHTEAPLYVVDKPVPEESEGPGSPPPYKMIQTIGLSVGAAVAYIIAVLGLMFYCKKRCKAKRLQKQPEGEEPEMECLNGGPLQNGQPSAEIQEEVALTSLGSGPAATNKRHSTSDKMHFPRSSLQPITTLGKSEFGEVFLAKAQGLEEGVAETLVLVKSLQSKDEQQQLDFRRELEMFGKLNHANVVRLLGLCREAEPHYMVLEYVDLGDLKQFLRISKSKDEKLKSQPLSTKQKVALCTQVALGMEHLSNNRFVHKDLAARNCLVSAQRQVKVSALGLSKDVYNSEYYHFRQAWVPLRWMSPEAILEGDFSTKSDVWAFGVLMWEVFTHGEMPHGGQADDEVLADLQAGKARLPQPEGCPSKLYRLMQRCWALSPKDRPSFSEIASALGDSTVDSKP
UniProt P49721: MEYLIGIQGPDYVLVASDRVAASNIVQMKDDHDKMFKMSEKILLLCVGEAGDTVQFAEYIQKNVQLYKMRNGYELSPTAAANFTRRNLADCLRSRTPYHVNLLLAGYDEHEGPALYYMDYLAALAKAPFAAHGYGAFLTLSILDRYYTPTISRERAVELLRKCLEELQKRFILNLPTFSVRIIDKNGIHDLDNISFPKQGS
UniProt Q53H96: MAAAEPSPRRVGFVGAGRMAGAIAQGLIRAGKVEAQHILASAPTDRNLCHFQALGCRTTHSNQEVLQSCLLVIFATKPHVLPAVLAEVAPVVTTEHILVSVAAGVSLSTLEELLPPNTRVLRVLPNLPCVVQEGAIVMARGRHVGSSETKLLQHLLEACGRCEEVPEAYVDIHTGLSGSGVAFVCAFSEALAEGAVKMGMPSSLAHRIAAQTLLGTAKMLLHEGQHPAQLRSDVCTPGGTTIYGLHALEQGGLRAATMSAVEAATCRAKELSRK

Tests used:
Experiment in all cases: log2 fold change, soluble protein after heating vs DMSO (PISA); higher = thermal stabilisation; K562 cells, 10 uM, 30 min; active = over 0.2 and 3.5 SD of the protein, either way, in both replicates (recomputed)
erlotinib = compound: C#Cc1cccc(Nc2ncnc3cc(OCCOC)c(OCCOC)cc23)c1 [erlotinib]
Procedure, shortened: (§1)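 Quantification of soluble protein used TMTpro 16plex LC-MS/MS, with channel sums equalised. Samples were the supernatant after 21,000xg for 90 min of pooled aliquots from K562 cells (2×10^6 cells/mL) treated with 10 μM compound for 30 min, heated for 3 min over 48°C-58°C, and extracted in PBS with 0.5% NP-40 at 4°C. Values, from duplicates, describe thermal stability against control samples on a log2 fold-change scale.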

[1] = compound: C/C(=N\NC(=O)C1=CC(=CC=C1)S(=O)(=O)N2CCOCC2)/C3=C(C=CC(=C3)Cl)O
Procedure, shortened: as §1

[2] = compound: C1=CC(=C(C=C1Cl)C2=NC3=NC=CN=C3C(=N2)NC4=CC=NC=C4)F
Procedure, shortened: as §1

[3] = compound: C1=CC(=CC=C1C2=NC3=C(N2)C=C(C=C3)C(=O)N)OC4=CC=C(C=C4)Cl
Procedure, shortened: as §1

[4] = compound: C1=CC2=C(C=CC(=C2)/C=C\3/C(=O)NC(=NCC4=CC=CS4)S3)N=C1
Procedure, shortened: as §1

[5] = compound: C1=CC2=NC=CN=C2C=C1/C=C/3\C(=O)NC(=O)S3
Procedure, shortened: as §1

[6] = compound: C1=CC=C(C=C1)C2=NC(=C(N2)C3=CC=NC=C3)C4=CC(=C(C=C4)Cl)O
Procedure, shortened: as §1

[7] = compound: C1=CC=C2C(=C1)C3=NNC4=CC=CC(=C43)C2=O
Procedure, shortened: as §1

[8] = compound: C1CCN(C1)C(=O)NC2=CC=CC(=C2)NC3=NC=C(C(=N3)NCCC4=CN=CN4)Br
Procedure, shortened: as §1

[9] = compound: C1CN(CCC1(CC2=CC=C(C=C2)Cl)N)C3=NC=NC4=C3C=CN4
Procedure, shortened: as §1

IRAK-1-4 Inhibitor I = compound: C1COCCN1CCN2C3=CC=CC=C3N=C2NC(=O)C4=CC(=CC=C4)[N+](=O)[O-] [IRAK-1-4 Inhibitor I]
Procedure, shortened: as §1

ibrutinib = compound: C=CC(=O)N1CCC[C@@H](n2nc(-c3ccc(Oc4ccccc4)cc3)c3c(N)ncnc32)C1 [ibrutinib]
Procedure, shortened: as §1

[10] = compound: CC(=O)c1cnc2ccc(-c3cc(Cl)c(O)c(Cl)c3)nc2c1N[C@H]1CC[C@H](CN(C)C)CC1
Procedure, shortened: as §1

ralimetinib = compound: CC(C)(C)Cn1c(N)nc2ccc(-c3[nH]c(C(C)(C)C)nc3-c3ccc(F)cc3)nc21 [ralimetinib]
Procedure, shortened: as §1

[11] = compound: CC(C)(O)CC(=O)NCCn1ccc2ncnc(Nc3ccc(Oc4cccc(C(F)(F)F)c4)c(Cl)c3)c21
Procedure, shortened: as §1

[12] = compound: CC(C)C1=C2N=C(C=C(N2N=C1)NCC3=CC=CC=C3)NCCCCCCN
Procedure, shortened: as §1

[13] = compound: CC(C)C[C@@H](C=O)NC(=O)[C@H](CC(C)C)NC(=O)[C@H](CC(C)C)NC(=O)OCc1ccccc1
Procedure, shortened: as §1

pinometostat = compound: CC(C)N(C[C@H]1O[C@@H](n2cnc3c(N)ncnc32)[C@H](O)[C@@H]1O)[C@H]1C[C@@H](CCc2nc3cc(C(C)(C)C)ccc3[nH]2)C1 [pinometostat]
Procedure, shortened: as §1

[14] = compound: CC1=C(C(CC(=O)N1)C2=CC=C(C=C2)C(F)(F)F)C(=O)NC3=C(C=C4C(=C3)C=NN4)F
Procedure, shortened: as §1

[15] = compound: CC1=C(C2=C(C=C1)C(=O)C3=CC=CC=C3N2CCCN)C
Procedure, shortened: as §1

Measured: log2 fold change

PSME3 isoform 2 (UniProt P61289)
inactive: erlotinib 0.011 | [1] 0.005 | [2] 0.023 | [3] -0.015 | [4] -0.07 | [5] 0.024 | [6] 0.026 | [7] -0.017 | [8] 0.015 | [9] 0.034 | IRAK-1-4 Inhibitor I 0.059 | ibrutinib 0.007 | [10] -0.017 | ralimetinib -0.003 | [11] 0.03 | [12] 0.065 | [13] -0.031 | pinometostat -0.034 | [14] 0.015 | [15] -0.035

PSTPIP2 (UniProt Q9H939)
inactive: erlotinib -0.015 | [1] -0.025 | [2] -0.015 | [3] 0.014 | [4] -0.056 | [5] 0.07 | [6] -0.009 | [7] 0.047 | [8] -0.018 | [9] 0.004 | IRAK-1-4 Inhibitor I -0.044 | ibrutinib -0.068 | [10] 0.016 | ralimetinib 0.046 | [11] 0.054 | [12] 0.008 | [13] 0.064 | pinometostat 0.017 | [14] -0.03 | [15] 0.041

PSMF1 (UniProt Q92530)
inactive: erlotinib 0.083 | [1] 0.002 | [2] -0.013 | [3] -0.012 | [4] 0.099 | [5] -0.012 | [6] 0.02 | [7] -0.007 | [8] 0.061 | [9] 0.027 | IRAK-1-4 Inhibitor I 0.057 | ibrutinib 0.004 | [10] -0.015 | ralimetinib -0.014 | [11] 0 | [12] 0.02 | [13] -0.008 | pinometostat -0.047 | [14] 0.016 | [15] 0.026

QPRT (UniProt Q15274)
inactive: erlotinib 0.035 | [1] 0.005 | [2] 0.057 | [3] 0.011 | [4] 0.04 | [5] 0.004 | [6] 0.048 | [7] -0.029 | [8] -0.015 | [9] 0.033 | IRAK-1-4 Inhibitor I 0.016 | ibrutinib 0.006 | [10] 0.008 | ralimetinib -0.043 | [11] 0.004 | [12] 0.048 | [13] -0.042 | pinometostat -0.027 | [14] 0.019 | [15] 0

PSMD14 (UniProt O00487)
inactive: erlotinib -0.073 | [1] -0.021 | [2] -0.027 | [3] 0.024 | [4] -0.003 | [5] 0.012 | [6] 0.013 | [7] 0.044 | [8] -0.017 | [9] -0.05 | IRAK-1-4 Inhibitor I -0.063 | ibrutinib -0.087 | [10] 0.029 | ralimetinib 0.03 | [11] -0.046 | [12] -0.03 | [13] -0.237 | pinometostat 0.055 | [14] 0.021 | [15] 0.048

PTDSS2 (UniProt Q9BVG9)
inactive: erlotinib -0.012 | [1] 0.01 | [2] 0.056 | [3] -0.022 | [4] 0.066 | [5] 0.094 | [6] -0.026 | [7] -0.032 | [8] -0.017 | [9] 0.005 | IRAK-1-4 Inhibitor I 0.023 | ibrutinib -0.02 | [10] -0.016 | ralimetinib -0.121 | [11] -0.03 | [12] -0.189 | [13] 0.008 | pinometostat -0.007 | [14] -0.019 | [15] 0.025

QPCTL (UniProt Q9NXS2)
inactive: erlotinib -0.043 | [1] -0.038 | [2] -0.014 | [3] 0.083 | [4] 0.06 | [5] -0.035 | [6] -0.054 | [7] 0.045 | [8] -0.071 | [9] -0.053 | IRAK-1-4 Inhibitor I -0.038 | ibrutinib -0.067 | [10] -0.013 | ralimetinib 0.067 | [11] -0.004 | [12] -0.154 | [13] 0.073 | pinometostat 0.023 | [14] 0 | [15] 0.057

PWP1 (UniProt Q13610)
inactive: erlotinib -0.201 | [1] -0.183 | [2] -0.541 | [3] 0.079 | [4] -0.132 | [5] 0.028 | [6] -0.043 | [7] -0.029 | [8] 0.001 | [9] -0.217 | IRAK-1-4 Inhibitor I -0.21 | ibrutinib 0.132 | [10] 0.299 | ralimetinib 0.277 | [11] 0.084 | [12] -0.099 | [13] 0.063 | pinometostat 0.418 | [14] 0.081 | [15] -0.891

PSAP isoform 3 (UniProt P07602)
inactive: erlotinib -0.024 | [1] 0.048 | [2] 0.087 | [3] 0.031 | [4] 0.008 | [5] 0.06 | [6] 0.024 | [7] -0.012 | [8] -0.007 | [9] -0.025 | IRAK-1-4 Inhibitor I 0.035 | ibrutinib -0.009 | [10] 0.022 | ralimetinib -0.038 | [11] -0.055 | [12] 0.067 | [13] 0.118 | pinometostat -0.103 | [14] -0.019 | [15] -0.091

PTPRC (UniProt P08575)
inactive: erlotinib -0.012 | [1] -0.005 | [2] 0.061 | [3] -0.016 | [4] 0.025 | [5] 0.007 | [6] 0.04 | [7] -0.059 | [8] -0.012 | [9] 0.048 | IRAK-1-4 Inhibitor I 0.03 | ibrutinib 0.018 | [10] -0.057 | ralimetinib -0.025 | [11] 0 | [12] 0.133 | [13] -0.007 | pinometostat -0.021 | [14] -0.012 | [15] 0.01

PTPRA (UniProt P18433)
inactive: erlotinib -0.036 | [1] 0.06 | [2] 0.017 | [3] -0.033 | [4] -0.002 | [5] 0.072 | [6] -0.09 | [7] 0.006 | [8] -0.073 | [9] 0.047 | IRAK-1-4 Inhibitor I -0.022 | ibrutinib -0.081 | [10] -0.102 | ralimetinib -0.035 | [11] 0.036 | [12] 0.129 | [13] 0.065 | pinometostat -0.071 | [14] -0.021 | [15] 0.021

Random excerpt: 2 entries already listed, in no set order.
PTPRC (UniProt P08575)
inactive: erlotinib -0.012 | [1] -0.005 | [2] 0.061 | [3] -0.016 | [4] 0.025 | [5] 0.007 | [6] 0.04 | [7] -0.059 | [8] -0.012 | [9] 0.048 | IRAK-1-4 Inhibitor I 0.03 | ibrutinib 0.018 | [10] -0.057 | ralimetinib -0.025 | [11] 0 | [12] 0.133 | [13] -0.007 | pinometostat -0.021 | [14] -0.012 | [15] 0.01

PWP1 (UniProt Q13610)
inactive: erlotinib -0.201 | [1] -0.183 | [2] -0.541 | [3] 0.079 | [4] -0.132 | [5] 0.028 | [6] -0.043 | [7] -0.029 | [8] 0.001 | [9] -0.217 | IRAK-1-4 Inhibitor I -0.21 | ibrutinib 0.132 | [10] 0.299 | ralimetinib 0.277 | [11] 0.084 | [12] -0.099 | [13] 0.063 | pinometostat 0.418 | [14] 0.081 | [15] -0.891

Additional records

PTK7 isoform 6 (UniProt Q13308)
inactive: erlotinib -0.007 | [1] -0.011 | [2] 0.179 | [3] -0.003 | [4] 0.039 | [5] 0.069 | [6] -0.027 | [7] -0.038 | [8] -0.092 | [9] 0.138 | IRAK-1-4 Inhibitor I -0.04 | ibrutinib 0.011 | [10] -0.128 | ralimetinib -0.111 | [11] -0.503 | [12] 0.108 | [13] 0.085 | pinometostat 0.005 | [14] -0.002 | [15] -0.046

PTPN11 isoform 1 (UniProt Q06124)
inactive: erlotinib -0.024 | [1] 0.021 | [2] 0.088 | [3] 0.013 | [4] 0.022 | [5] 0.038 | [6] -0.019 | [7] -0.002 | [8] -0.001 | [9] 0.044 | IRAK-1-4 Inhibitor I -0.009 | ibrutinib -0.004 | [10] -0.03 | ralimetinib -0.059 | [11] -0.035 | [12] 0.014 | [13] 0.025 | pinometostat -0.033 | [14] -0.028 | [15] 0.014

PXMP2 (UniProt Q9NR77)
inactive: erlotinib 0.023 | [1] 0.044 | [2] 0 | [3] -0.021 | [4] 0.032 | [5] -0.001 | [6] 0.043 | [7] -0.008 | [8] -0.045 | [9] 0.026 | IRAK-1-4 Inhibitor I 0.045 | ibrutinib -0.012 | [10] -0.016 | ralimetinib -0.101 | [11] 0.037 | [12] -0.06 | [13] -0.039 | pinometostat -0.041 | [14] 0.021 | [15] 0.029

PSMB2 (UniProt P49721)
inactive: erlotinib -0.076 | [1] -0.032 | [2] -0.003 | [3] -0.02 | [4] -0.024 | [5] 0.063 | [6] 0.075 | [7] 0.019 | [8] 0.003 | [9] 0.006 | IRAK-1-4 Inhibitor I -0.039 | ibrutinib -0.009 | [10] 0.052 | ralimetinib 0.001 | [11] -0.047 | [12] 0.062 | [13] -0.086 | pinometostat -0.007 | [14] 0.058 | [15] 0.013

PYCR3 (UniProt Q53H96)
inactive: erlotinib 0.015 | [1] 0 | [2] 0.061 | [3] 0.029 | [4] 0.012 | [5] 0.025 | [6] -0.007 | [7] -0.031 | [8] -0.01 | [9] 0.036 | IRAK-1-4 Inhibitor I -0.024 | ibrutinib 0.042 | [10] 0.008 | ralimetinib 0 | [11] -0.057 | [12] 0.119 | [13] -0.01 | pinometostat -0.036 | [14] 0.011 | [15] 0.037
